# Primary screen of a compound library

Measurements from “University of Dundee, Small-Polar-MMV Screening Library” (2021), ChEMBL document CHEMBL3988442.

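Whole-parasite assay of Trypanosoma brucei over 72 hours; the read-out is not stated. Tested at 30 µM. The record gives no direction; compounds that gave an IC50 in retests scored well above the rest, so higher reads as stronger inhibition. Values scatter widely below zero; nearly all retest evidence comes from the higher of the two concentrations used. About 64,000 compounds were tested under these conditions; 1.5% (about 940) showed 50% or more at least once.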

Values are the deposited “Percent Effect”, in %.
How 0% and 100% were set is not recorded. Most values in the screen are low, and negative values occur.
Compounds were drawn at random from those tested, without regard to their results.

{"compound": "CN(Cc1ccccc1O)C(=O)Nc1cc(F)cc(N2CCCC2)c1", "percent effect": -53.93}
{"compound": "CN1CCC(CNC(=O)c2ccc3cccc(Cl)c3n2)C1", "stereo": "stereo unspecified", "percent effect": 1.812}
{"compound": "COc1ccccc1CN1CCC(O)(Cn2ccc3ncccc32)CC1", "percent effect": 17.19}
{"compound": "[H][C@@]12CCCO[C@]1([H])[C@H](N(C)Cc1cccnc1)CN2c1ccccn1", "percent effect": -9.468}
{"compound": "CCc1ncc(C(=O)N2CCOCC2CC(=O)c2ccccc2)s1", "stereo": "stereo unspecified", "percent effect": -34.09}
{"compound": "CN(Cc1ccco1)C(=O)NC(Cn1ccnc1)C(C)(C)C", "stereo": "stereo unspecified", "percent effect": -9.849}
{"compound": "Cc1ccc(CNC(=O)N2CCOCC2C2CC2)cc1F", "stereo": "stereo unspecified", "percent effect": -7.325}
{"compound": "CCc1ncnc2c1CCN(CCOC)CC2.O=C(O)C(F)(F)F", "percent effect": -78.57}
{"compound": "CC(C)C(=O)NC1COC2(CCN(C(=O)c3ccc[nH]3)CC2)C1", "stereo": "stereo unspecified", "percent effect": -21.27}
{"compound": "Cn1cccc1C(O)CNC(=O)COc1ccccc1F", "stereo": "stereo unspecified", "percent effect": 18.77}
{"compound": "Cc1nc(C(C)(C)NC(=O)Nc2cccc(C#N)c2)no1", "percent effect": -47.83}
{"compound": "COc1ccc(OC)c(NC(=O)N2CCCC2c2ccco2)c1", "stereo": "stereo unspecified", "percent effect": -19.24}
{"compound": "Cc1ccccc1CN(CCN(C)C)Cc1ccc(O)c(C(=O)O)c1", "percent effect": -6.018}
{"compound": "[H][C@@]12C[C@H](C(=O)NCC3CC3)[C@@]([H])(CN(S(=O)(=O)Cc3ccccc3)C1)O2", "percent effect": -18.74}
{"compound": "Cc1cc(CN2CCN(C(C)c3nc(C(C)C)no3)CC2)no1", "stereo": "stereo unspecified", "percent effect": 6.974}
{"compound": "CN1CC(C(=O)N2CCC(Oc3ccccc3Cl)CC2)CC1=O", "stereo": "stereo unspecified", "percent effect": -9.985}
{"compound": "O=C(N1CCC(Oc2ccncc2)C1)C1(c2cccc(F)c2)CC1", "stereo": "stereo unspecified", "percent effect": -40.74}
{"compound": "Cl.FC(F)(F)c1nc(C2CCCNC2)no1", "stereo": "stereo unspecified", "percent effect": -0.379}
{"compound": "OCCN1CCC(CNCc2ccc(N3CCCCC3)cc2)CC1", "percent effect": 45.93}
{"compound": "Cc1cc(F)ccc1N1CCCC(NS(=O)(=O)CCCF)C1=O", "stereo": "stereo unspecified", "percent effect": -21.98}
{"compound": "Cc1nc2[nH]cnc(Nc3cc(C)n(C)n3)c-2n1", "percent effect": -9.749}
{"compound": "CCOc1ccc(CSC(C)c2nc(C)no2)nc1", "stereo": "stereo unspecified", "percent effect": -2.014}
{"compound": "CC1CN(C)CCN1C(=O)c1cnn(-c2cccc(Cl)c2)c1", "stereo": "stereo unspecified", "percent effect": -22.44}
{"compound": "Cc1cccc(CN2CCC3(CCN(c4cccnc4)C3=O)C2)n1.O=C(O)C(F)(F)F.O=C(O)C(F)(F)F", "stereo": "stereo unspecified", "percent effect": -5.668}
{"compound": "Cc1cc(NCC(C)C)ccc1C(=O)N(C)C", "percent effect": -47}
{"compound": "CCN(CC)S(=O)(=O)c1ccc(C(=O)NC(C)(C#N)C2CC2)cc1", "stereo": "stereo unspecified", "percent effect": -48.44}
{"compound": "CCCc1cc(C(=O)N2CC(c3ccncc3)C2)ccn1", "percent effect": -10.84}
{"compound": "CCN(Cc1cc(Cl)ccc1OC)Cc1ncnn1CC", "percent effect": -114.4}
{"compound": "CCc1nc(CN2CCCN(C(=O)C(C)n3ccnc3)CC2)cs1", "stereo": "stereo unspecified", "percent effect": 26.38}
{"compound": "CN(C(=O)CCNC(=O)NC1CCCCC1)c1ccccc1", "percent effect": -1.234}
{"compound": "Cc1cc(C)nc(N2CCC(C(=O)O)(n3ccc(C(C)(C)C)n3)CC2)n1", "percent effect": -23.15}
{"compound": "COc1cccc(C(=O)N2CCN(C(=O)CCn3ccnc3)CC2)c1", "percent effect": -52.44}
{"compound": "CN1CCN(CCCNC(=O)c2nc3ccccc3c(=O)[nH]2)CC1", "percent effect": -24.98}
{"compound": "COc1ccc(-n2nc(C(C)C)nc2Cn2cncn2)cc1", "percent effect": -3.001}
{"compound": "Cc1nccn1-c1ccc(=O)n(CCNC(=O)Cc2ccccc2)n1", "percent effect": -30}
{"compound": "N#CC1COCCN1S(=O)(=O)c1ccc(F)c(Br)c1", "stereo": "stereo unspecified", "percent effect": -37.86}
{"compound": "COCCN1CCN(C(=O)C2CC=CC2)Cc2cccnc21", "percent effect": 22.6}